PubChem BioAssay AID652243 | Drosophila RNAi Screening Center – 2013
The deposit covers about 24,000 reagents; this is an unselected part of those with a known target gene and a result. In the full data, 246 (1%) got an active call. 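Plates not normalised; calls are printed but the firefly/Renilla ratio behind them is not deposited; fold cut for lowering reported inconsistently.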 Raw values vary from plate to plate and are shown uncorrected. Names joined by + are all predicted targets of the reagent. No sequences are given here. Not given: the amount of reagent.

- Purpose: 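Knock-downs that decrease or increase androgen receptor reporter signal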 (primary screen)
- Cell system: Drosophila S2R+ cells
- Reagent: long dsRNA against Drosophila genes
- Time to read-out: 72 h (48 h, then 24 h hormone)
- Treatment: synthetic androgen R1881 at 10 nM for 24 h
- Detection: 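Firefly light from an androgen-responsive reporter and Renilla control light per well, raw and unnormalised, for each of two replicates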
- Direction: firefly reporter light: higher = more light from androgen-responsive reporter; Renilla control light: higher = more constitutive control signal (cell number, transfection)
- Active means: 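Hit when the log firefly-to-Renilla ratio dropped or increased by a fixed fold versus the mean of GFP or LacZ controls across duplicate plates; lowering cut given as 1.5 and as 3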
- Calls: active = hit: reporter lowered or raised; inactive = no hit

Target gene	amplicon	firefly reporter light, replicate 1	firefly reporter light, replicate 2	Renilla control light, replicate 1	Renilla control light, replicate 2	outcome
CG1674	DRSC17142	2.79e5	3.00e5	4.36e6	2.96e6	inactive
CG1674	DRSC29516	2.06e5	3.20e5	7.50e5	7.50e5	inactive
Or59a	DRSC04631	3.11e5	3.17e5	2.28e6	1.79e6	inactive
mAcon2	DRSC15629	1.32e5	1.43e5	2.51e6	2.65e6	inactive
mAcon2	DRSC24696	8.24e5	6.74e5	8.22e5	1.08e6	inactive
NetA	DRSC20261	3.68e5	4.70e5	2.76e6	2.69e6	inactive
CG17217	DRSC02592	2.37e5	2.41e5	1.86e6	2.14e6	inactive
yellow-c + CIAPIN1	DRSC01898	1.77e5	1.46e5	1.85e6	1.94e6	inactive
Or98P	DRSC22948	5.93e5	9.73e5	1.09e6	1.49e6	inactive
Or98P	DRSC25899	3.63e5	4.59e5	8.92e5	7.96e5	inactive
CG30355	DRSC21958	6.96e5	5.94e5	8.98e5	7.32e5	inactive
Fpps	DRSC07429	9.98e5	9.43e5	9.25e5	1.04e6	inactive
vrs	DRSC15832	1.77e5	1.64e5	2.18e6	1.57e6	inactive
vrs	DRSC26261	3.54e5	3.99e5	6.07e5	7.64e5	inactive
Mppe	DRSC07296	8.59e5	7.56e5	1.51e6	1.46e6	inactive
ver	DRSC10125	2.87e5	2.64e5	2.38e6	2.17e6	inactive
ver	DRSC28113	6.93e5	5.76e5	1.89e6	1.68e6	inactive
Vha14-2	DRSC12145	58624	58720	2.01e6	1.26e6	inactive
Cnep1r2	DRSC10950	8.62e5	5.70e5	2.13e6	2.08e6	inactive
alpha-Est5	DRSC12617	66884	51559	2.31e5	3.51e5	inactive
Sras	DRSC11287	2.08e5	1.82e5	2.62e6	1.64e6	inactive
CG7800	DRSC16315	1.55e5	1.33e5	2.76e6	2.39e6	inactive
CG7800	DRSC27419	2.95e5	2.07e5	8.80e5	8.52e5	inactive
mRRF1	DRSC10421	6.31e5	4.13e5	9.85e5	6.05e5	inactive

Next part, starting with the last 4 of the part before.
Target gene	amplicon	firefly reporter light, replicate 1	firefly reporter light, replicate 2	Renilla control light, replicate 1	Renilla control light, replicate 2	outcome
Sras	DRSC11287	2.08e5	1.82e5	2.62e6	1.64e6	inactive
CG7800	DRSC16315	1.55e5	1.33e5	2.76e6	2.39e6	inactive
CG7800	DRSC27419	2.95e5	2.07e5	8.80e5	8.52e5	inactive
mRRF1	DRSC10421	6.31e5	4.13e5	9.85e5	6.05e5	inactive
oxt	DRSC08522	7.37e5	1.02e6	1.45e6	1.61e6	inactive
Vang	DRSC07570	1.68e5	1.75e5	1.54e6	1.87e6	inactive
ND-ASHI	DRSC18291	3.01e5	3.32e5	3.04e6	3.73e6	inactive
ND-ASHI	DRSC27165	1.90e5	1.88e5	5.34e5	6.61e5	inactive
mop	DRSC11065	1.09e6	8.73e5	1.79e6	2.06e6	inactive
mop	DRSC28489	2.85e5	5.46e5	5.42e5	1.10e6	inactive
mop	DRSC37066					inactive
Ance-4	DRSC07104	2.82e5	1.84e5	2.29e6	1.44e6	inactive
CG31650	DRSC03140	4.47e5	6.10e5	2.11e6	2.01e6	inactive
CG31650	DRSC28972	4.72e5	4.57e5	1.24e6	1.17e6	inactive
CG14246	DRSC14741	3.28e5	3.01e5	2.07e6	2.41e6	inactive
CG14246	DRSC27766	7.14e5	5.23e5	8.31e5	8.06e5	inactive
sofe	DRSC19751	1.22e5	1.37e5	9.28e5	8.70e5	inactive
AOX4	DRSC15337	97949	82888	1.22e6	1.36e6	inactive
AOX4	DRSC26337	2.92e5	3.00e5	4.75e5	7.37e5	inactive
Arl1	DRSC09667	1.81e5	1.77e5	2.27e6	2.13e6	inactive
